For the data set, the system named is PAM4 antigen. As to the kind of experiment: PAM4 enzyme immunoassay of blood in the orthotopic CaPan1 model. Format: binding, athymic nude mice.

The values below come from US7238786B2, “Monoclonal antibody cPAM4” (Immunomedics, Inc., priority 2002, dated 2007).

B1: PAM4: murine MUC1 monoclonal antibody developed with pancreatic cancer mucin from the xenografted RIP-1 human pancreatic carcinoma as immunogen (antibody, V domains shown)
VL: DIVMTQSPAIMSASPGEKVTMTCSASSSVSSSYLYWYQQKPGSSPKLWIYSTSNLASGVPARFSGSGSGTSYSLTISSMEAEDAASYFCHQWNRYPYTFGGGTKLEIK
VH: EVQLQESGPELVKPGASVKMSCKASGYTFPSYVLHWVKQKPGQGLEWIGYINPYNDGTQYNEKFKGKATLTSDKSSSTAYMELSRLTSEDSAVYYCARGFGGSYGFAYWGQGTLITVSA
Regarding B1, where the note is “six weeks, four out of five animals quantifiable”, the “level of antigen in the blood, range” value is listed as 98-6080 units. Moreover, the “antigen in the blood” value (two weeks postimplantation, estimated tumor mass 0.15 g) is “none of the animals had detectable antigen”.
